Three molecules from publication PMC5963871 can be followed below.

Sequences of proteins named here, by UniProt entry; tags and fusion partners are left off.
UniProt Q24572: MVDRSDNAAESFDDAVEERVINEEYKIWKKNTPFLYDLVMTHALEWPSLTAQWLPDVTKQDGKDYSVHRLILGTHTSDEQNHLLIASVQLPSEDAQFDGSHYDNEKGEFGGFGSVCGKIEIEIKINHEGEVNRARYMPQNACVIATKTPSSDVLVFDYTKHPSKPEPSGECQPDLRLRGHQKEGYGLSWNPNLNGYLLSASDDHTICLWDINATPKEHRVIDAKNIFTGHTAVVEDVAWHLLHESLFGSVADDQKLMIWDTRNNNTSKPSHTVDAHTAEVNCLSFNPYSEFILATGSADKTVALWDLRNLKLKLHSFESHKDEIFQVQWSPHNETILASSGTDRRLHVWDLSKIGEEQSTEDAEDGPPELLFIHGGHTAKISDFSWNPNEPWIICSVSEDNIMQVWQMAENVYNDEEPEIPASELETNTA

Substitutions are numbered along the chain they refer to. Names and notes keep the numbering of the source. Results are given in words; binding and its absence hold for the method and conditions named. Binding seen in cells or lysates may run through a third protein. Some results given as binding are weak or reduced against the parent protein; the word gives no strength. For part of these data: Tags and fused reporters may be left off the sequences shown.

Experiment [1] addresses His-tagged Caf1 (H-Caf1) (Drosophila) (UniProt Q24572). Put plainly: pull-down; His-affinity (Ni-NTA) purification from Hi-5 cells co-expressing H-Caf1, MRG15 and Ash1C; 20 mM Tris-HCl pH 8, 300 mM KCl, 5 mM imidazole; elution with 250 mM imidazole; Coomassie Blue-stained gel.
For experiment [2], the target named is T1, Strep-tagged full-length MRG15 (S-MRG15) (Drosophila) (UniProt Q9Y0I1).
T1 sequence: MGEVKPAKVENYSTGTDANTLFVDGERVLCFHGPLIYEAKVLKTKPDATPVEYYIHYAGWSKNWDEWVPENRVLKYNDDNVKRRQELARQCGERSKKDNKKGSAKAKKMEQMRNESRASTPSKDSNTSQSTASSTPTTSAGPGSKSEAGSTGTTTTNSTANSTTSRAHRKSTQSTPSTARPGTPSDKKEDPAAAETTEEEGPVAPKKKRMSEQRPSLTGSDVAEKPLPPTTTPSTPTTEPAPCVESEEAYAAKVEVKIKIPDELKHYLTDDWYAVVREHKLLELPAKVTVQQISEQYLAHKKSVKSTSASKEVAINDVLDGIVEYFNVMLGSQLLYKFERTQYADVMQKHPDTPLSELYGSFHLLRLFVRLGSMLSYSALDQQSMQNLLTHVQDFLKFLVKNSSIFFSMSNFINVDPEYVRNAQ
The description is as above.

The target of experiment [3] is Strep-tagged Caf1 (S-Caf1) (Drosophila) (UniProt Q24572). In words: pull-down; Strep-Tactin affinity purification from Hi-5 cells co-expressing the proteins (baculovirus); lysis and washes in 20 mM Tris-HCl pH 8, 300 mM KCl, 2 mM MgCl2, 15% glycerol, 0.1% NP-40 substitute; elution with 5 mM d-desthiobiotin; Coomassie Blue-stained gel.
The target of experiment [4] is T1, Strep-tagged full-length MRG15 (S-MRG15) (Drosophila). The description is as above.
Experiment [5] has as its target T2, Drosophila Ash1_(XL-SET) (Ash1_(1275-1522)) (Drosophila) (UniProt Q9VW15).
T2 sequence: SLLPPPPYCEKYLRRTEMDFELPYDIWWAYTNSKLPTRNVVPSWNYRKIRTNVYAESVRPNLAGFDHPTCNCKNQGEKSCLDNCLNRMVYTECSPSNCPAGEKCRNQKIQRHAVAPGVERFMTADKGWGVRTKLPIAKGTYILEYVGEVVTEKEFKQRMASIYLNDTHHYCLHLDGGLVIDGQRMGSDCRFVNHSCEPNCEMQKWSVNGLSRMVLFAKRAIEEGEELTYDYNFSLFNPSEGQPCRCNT
Put plainly: pull-down; co-expression in E. coli BL21 (RILP); complex purified on Ni-NTA by the N-terminal 6xHis tag of the Ash1/ASH1L fragment, TEV cleavage, ion exchange and size exclusion chromatography in 50 mM Tris HCl pH 8.0, 100 mM NaCl. For orientation: SEC sorts molecules by how far they enter the pores of the column.

B1: Drosophila Ash1_(1041-2226) (Ash1C) (domain or fragment, UniProt Q9VW15 1041-2226)
chain: TNQKAPRLSVVALERLQRPQTPARGRPRGRKPKNREQAEAAPQPPPKSEPEIRPAKKRGRQPKQPVLEEPPPTPPPQQKKNKMEPNIRLPDGIDPNTNFSCKIRLKRRKNLEAGTQPKKEKPVQPVTVEEIPPEIPVSQEEIDAEAEAKRLDSIPTEHDPLPASESHNPGPQDYASCSESSEDKASTTSLRKLSKVKKTYLVAGLFSNHYKQSLMPPPAKVNKKPGLEEQVGPASLLPPPPYCEKYLRRTEMDFELPYDIWWAYTNSKLPTRNVVPSWNYRKIRTNVYAESVRPNLAGFDHPTCNCKNQGEKSCLDNCLNRMVYTECSPSNCPAGEKCRNQKIQRHAVAPGVERFMTADKGWGVRTKLPIAKGTYILEYVGEVVTEKEFKQRMASIYLNDTHHYCLHLDGGLVIDGQRMGSDCRFVNHSCEPNCEMQKWSVNGLSRMVLFAKRAIEEGEELTYDYNFSLFNPSEGQPCRCNTPQCRGVIGGKSQRVKPLPAVEAKPSGEGLSGRNGRQRKQKAKKHAQRQAGKDISSAVAVAKLQPLSEKEKKLVRQFNTFLVRNFEKIRRCKAKRASDAAATASSPALGTTNGDIPGRRPSTPSSPSLAAQISALCSPRNIKTRGLTQAVHDPELEKMAKMAVVLRDICSAMETLKMSDLLTTVSSKKKKPIKTTLSGKLGSTAATSKVEFRSIQAQVEQGHYKTPQEFDDHMQQLFVEAKQQHGDDEGKEKALQSLKDSYEQQKIASYVQLVEILGDSESLQSFKPKEVLSSEEEPGKIAVKKSPGAKERDSPIVPLKVTPPPLLPIEASPDEDVIRCICGLYKDEGLMIQCSKCMVWQHTECTKADIDADNYQCERCEPREVDREIPLEEFTEEGHRYYLSLMRGDLQVRQGDAVYVLRDIPIKDESGKVLPTKKHTYETIGAIDYQECDIFRVEHLWKNELGKRFIFGHHFLRPHETFHEPSRRFYPNEVVRVSLYEVVPIELVIGRCWVLDRTTFCKGRPMECNDEDHCYICELRVDKTARFFSKAKANHPACTKSYAFRKFPEKIKISKSYAPHDVDPSLLKTRKQKTELDVGAGPTTMHKVSGRQEQHQAKMVGRKPRGISAPADATAVHVVTPVAPNKQMLKKRKSRLENVLITMKLKCLDAQTAQEQPIDLSYLLSGRGARQRKTQQSSSSSTANST
For the molecule B1, the binding result in experiment [1], in experiment [2], in experiment [3] and in experiment [4] was “binds” in each case.

B2: Ash1C^R1464A (domain or fragment, UniProt Q9VW15 1041-2226)
chain: B1 chain with R424A
Regarding B2, in experiment [4], the binding entry is “binds”.

B3: Drosophila full-length MRG15 (E. coli) (protein, UniProt Q9Y0I1 1-424)
chain: T1 sequence
Consider B3, for which the binding entry in experiment [5] is reported as “binds”.
